Publication PMC10942257

Sequences of proteins named here, by UniProt entry; tags and fusion partners are left off. A change or cut given only in a name is not applied to a line headed by its entry.
UniProt Q9LHS9: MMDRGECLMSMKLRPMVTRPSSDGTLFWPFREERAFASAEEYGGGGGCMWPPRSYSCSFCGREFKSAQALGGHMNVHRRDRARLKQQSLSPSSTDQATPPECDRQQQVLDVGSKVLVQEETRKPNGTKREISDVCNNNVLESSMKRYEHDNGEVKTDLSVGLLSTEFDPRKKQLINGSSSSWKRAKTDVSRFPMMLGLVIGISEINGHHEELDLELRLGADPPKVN

What was measured:
[1] = target: RBE with point mutations in the EAR motif (mRBE), yeast two-hybrid fusion (Arabidopsis thaliana) (UniProt Q9LHS9); test: two-hybrid; Gal4 system, pGADT7 (prey) and pGBKT7-GW (bait) co-transformed into Y2H Gold yeast; DDO (SD-Leu-Trp) to select, QDO to analyze interactions; repeated three times
[2] = target: YFPn-mRBE (RBE with point mutations in the EAR motif) (Arabidopsis thaliana) (UniProt Q9LHS9); test: split reporter; BiFC with YFPn and YFPc fusions (pEarleyGate202-YN, pEarleyGate201-YC) co-infiltrated by Agrobacterium into N. benthamiana leaves with P19; confocal imaging 48h after infiltration

B1: TOPLESS (TPL), yeast two-hybrid fusion (protein, UniProt Q94AI7 1-1131)
chain: MSSLSRELVFLILQFLDEEKFKETVHKLEQESGFFFNMKYFEDEVHNGNWDEVEKYLSGFTKVDDNRYSMKIFFEIRKQKYLEALDKHDRPKAVDILVKDLKVFSTFNEELFKEITQLLTLENFRENEQLSKYGDTKSARAIMLVELKKLIEANPLFRDKLQFPTLRNSRLRTLINQSLNWQHQLCKNPRPNPDIKTLFVDHSCGPPNGARAPSPVNNPLLGGIPKAGGFPPLGAHGPFQPTASPVPTPLAGWMSSPSSVPHPAVSAGAIALGGPSIPAALKHPRTPPTNASLDYPSADSEHVSKRTRPMGISDEVNLGVNMLPMSFSGQAHGHSPAFKAPDDLPKTVARTLSQGSSPMSMDFHPIKQTLLLVGTNVGDIGLWEVGSRERLVQKTFKVWDLSKCSMPLQAALVKEPVVSVNRVIWSPDGSLFGVAYSRHIVQLYSYHGGEDMRQHLEIDAHVGGVNDISFSTPNKQLCVITCGDDKTIKVWDAATGVKRHTFEGHEAPVYSVCPHYKENIQFIFSTALDGKIKAWLYDNMGSRVDYDAPGRWCTTMAYSADGTRLFSCGTSKDGESFIVEWNESEGAVKRTYQGFHKRSLGVVQFDTTKNRYLAAGDDFSIKFWDMDAVQLLTAIDGDGGLQASPRIRFNKEGSLLAVSGNENVIKIMANSDGLRLLHTFENISSESSKPAINSIAAAAAAAATSAGHADRSANVVSIQGMNGDSRNMVDVKPVITEESNDKSKIWKLTEVSEPSQCRSLRLPENLRVAKISRLIFTNSGNAILALASNAIHLLWKWQRNERNATGKATASLPPQQWQPASGILMTNDVAETNPEEAVPCFALSKNDSYVMSASGGKISLFNMMTFKTMATFMPPPPAATFLAFHPQDNNIIAIGMDDSTIQIYNVRVDEVKSKLKGHSKRITGLAFSNVLNVLVSSGADAQLCVWNTDGWEKQRSKVLPLPQGRPNSAPSDTRVQFHQDQAHFLVVHETQLAIYETTKLECMKQWAVRESLAPITHATFSCDSQLVYASFMDATVCVFSSANLRLRCRVNPSAYLPASLSNSNVHPLVIAAHPQEPNMFAVGLSDGGVHIFEPLESEGKWGVAPPAENGSASGAPTAPSVGASASDQPQR
For B1, the binding [1] was “no binding”.

B2: YFPc-TPL (protein, UniProt Q94AI7 1-1131)
chain: MSSLSRELVFLILQFLDEEKFKETVHKLEQESGFFFNMKYFEDEVHNGNWDEVEKYLSGFTKVDDNRYSMKIFFEIRKQKYLEALDKHDRPKAVDILVKDLKVFSTFNEELFKEITQLLTLENFRENEQLSKYGDTKSARAIMLVELKKLIEANPLFRDKLQFPTLRNSRLRTLINQSLNWQHQLCKNPRPNPDIKTLFVDHSCGPPNGARAPSPVNNPLLGGIPKAGGFPPLGAHGPFQPTASPVPTPLAGWMSSPSSVPHPAVSAGAIALGGPSIPAALKHPRTPPTNASLDYPSADSEHVSKRTRPMGISDEVNLGVNMLPMSFSGQAHGHSPAFKAPDDLPKTVARTLSQGSSPMSMDFHPIKQTLLLVGTNVGDIGLWEVGSRERLVQKTFKVWDLSKCSMPLQAALVKEPVVSVNRVIWSPDGSLFGVAYSRHIVQLYSYHGGEDMRQHLEIDAHVGGVNDISFSTPNKQLCVITCGDDKTIKVWDAATGVKRHTFEGHEAPVYSVCPHYKENIQFIFSTALDGKIKAWLYDNMGSRVDYDAPGRWCTTMAYSADGTRLFSCGTSKDGESFIVEWNESEGAVKRTYQGFHKRSLGVVQFDTTKNRYLAAGDDFSIKFWDMDAVQLLTAIDGDGGLQASPRIRFNKEGSLLAVSGNENVIKIMANSDGLRLLHTFENISSESSKPAINSIAAAAAAAATSAGHADRSANVVSIQGMNGDSRNMVDVKPVITEESNDKSKIWKLTEVSEPSQCRSLRLPENLRVAKISRLIFTNSGNAILALASNAIHLLWKWQRNERNATGKATASLPPQQWQPASGILMTNDVAETNPEEAVPCFALSKNDSYVMSASGGKISLFNMMTFKTMATFMPPPPAATFLAFHPQDNNIIAIGMDDSTIQIYNVRVDEVKSKLKGHSKRITGLAFSNVLNVLVSSGADAQLCVWNTDGWEKQRSKVLPLPQGRPNSAPSDTRVQFHQDQAHFLVVHETQLAIYETTKLECMKQWAVRESLAPITHATFSCDSQLVYASFMDATVCVFSSANLRLRCRVNPSAYLPASLSNSNVHPLVIAAHPQEPNMFAVGLSDGGVHIFEPLESEGKWGVAPPAENGSASGAPTAPSVGASASDQPQR
B2 was tested, and the binding [2] was “no binding”.

B3: YFPc-HDA19 (enzyme, UniProt O22446 1-501)
chain: MDTGGNSLASGPDGVKRKVCYFYDPEVGNYYYGQGHPMKPHRIRMTHALLAHYGLLQHMQVLKPFPARDRDLCRFHADDYVSFLRSITPETQQDQIRQLKRFNVGEDCPVFDGLYSFCQTYAGGSVGGSVKLNHGLCDIAINWAGGLHHAKKCEASGFCYVNDIVLAILELLKQHERVLYVDIDIHHGDGVEEAFYATDRVMTVSFHKFGDYFPGTGHIQDIGYGSGKYYSLNVPLDDGIDDESYHLLFKPIMGKVMEIFRPGAVVLQCGADSLSGDRLGCFNLSIKGHAECVKFMRSFNVPLLLLGGGGYTIRNVARCWCYETGVALGVEVEDKMPEHEYYEYFGPDYTLHVAPSNMENKNSRQMLEEIRNDLLHNLSKLQHAPSVPFQERPPDTETPEVDEDQEDGDKRWDPDSDMDVDDDRKPIPSRVKREAVEPDTKDKDGLKGIMERGKGCEVEVDESGSTKVTGVNPVGVEEASVKMEEEGTNKGGAEQAFPPKT
B3 was tested, and the binding [2] was “no binding”.

No constants are given. Whether binding was seen depends on the method and setting. For part of these data: In cells and extracts the contact can be indirect. For part of these data: Sequences can lack the tags named with a protein.
